Source: PubChem BioAssay AID686938 (Drosophila RNAi Screening Center, 2013)

- Screen: 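Knock-downs reducing store-operated calcium influx in Drosophila cells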 (primary screen)
- Cell system: Drosophila S2R+ cells
- Reagent: long dsRNA against Drosophila genes, about 0.25 µg dsRNA per well, roughly 10,000 cells
- Time to read-out: 5 days of knock-down before the calcium assay
- Conditions: thapsigargin (SERCA pump blocker) to empty calcium stores; entry signal taken 4 min after adding it
- Read-out: 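Duplicate raw fluo-4 intensities per well from a plate reader, at rest and four minutes after thapsigargin emptied calcium stores; entry-to-rest ratio filled for only some wells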
- Scale: calcium entry signal: higher = stronger calcium signal after store depletion; resting calcium signal: higher = higher resting calcium signal
- Units: calcium entry signal in fluorescence units; resting calcium signal in fluorescence units
- Call rule: 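Called when the plate z-score of the entry-to-rest ratio, mean of duplicates, falls below −3; wells with low overall dye signal (Fmax z below −2) or more than five off-targets excluded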
- Meaning of the calls: active = strongly reduced calcium entry; inactive = no strong reduction
The screen tested about 23,000 reagents; shown is a random part of those with a known target gene and a result. Of all reagents, 75 (0.33%) are marked active. 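Raw plate signals without normalisation; calls rest on plate z-scores that were not deposited; ratio present for only 364 wells.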 Entries without a mark were called inactive. A plus sign joins genes that one reagent is predicted to hit. Not stated in the record: the dose of the treatment.

Slmap (Sarcolemma associated protein) [DRSC03799] | calcium entry signal, replicate 1: 4.23e7; calcium entry signal, replicate 2: 4.34e7; resting calcium signal, replicate 1: 2.13e7; resting calcium signal, replicate 2: 1.83e7
CG7443 [DRSC16244] | calcium entry signal, replicate 1: 3.03e7; calcium entry signal, replicate 2: 2.22e7; resting calcium signal, replicate 1: 1.56e7; resting calcium signal, replicate 2: 1.12e7
pon (partner of numb) [DRSC18823] | calcium entry signal, replicate 1: 3.33e7; calcium entry signal, replicate 2: 4.44e7; resting calcium signal, replicate 1: 1.74e7; resting calcium signal, replicate 2: 1.95e7
ics (icarus) [DRSC01878] | calcium entry signal, replicate 1: 3.53e7; resting calcium signal, replicate 1: 1.62e7
Drak (Death-associated protein kinase related) [DRSC19778] | calcium entry signal, replicate 1: 3.59e7; calcium entry signal, replicate 2: 6.38e7; resting calcium signal, replicate 1: 2.16e7; resting calcium signal, replicate 2: 3.37e7
Drak (Death-associated protein kinase related) [DRSC23298] | calcium entry signal, replicate 1: 3.10e7; calcium entry signal, replicate 2: 3.34e7; resting calcium signal, replicate 1: 1.56e7; resting calcium signal, replicate 2: 1.62e7
krimp (krimper) [DRSC06578] | calcium entry signal, replicate 1: 3.32e7; calcium entry signal, replicate 2: 3.30e7; resting calcium signal, replicate 1: 1.65e7; resting calcium signal, replicate 2: 1.66e7
CG3984 [DRSC15530] | calcium entry signal, replicate 1: 3.86e7; calcium entry signal, replicate 2: 6.44e7; resting calcium signal, replicate 1: 1.81e7; resting calcium signal, replicate 2: 6.58e7
Trf (TBP-related factor) [DRSC03462] | calcium entry signal, replicate 1: 3.31e7; calcium entry signal, replicate 2: 4.64e7; resting calcium signal, replicate 1: 1.59e7; resting calcium signal, replicate 2: 2.11e7
CG11109 [DRSC11633] | calcium entry signal, replicate 1: 2.48e7; calcium entry signal, replicate 2: 3.34e7; resting calcium signal, replicate 1: 1.21e7; resting calcium signal, replicate 2: 2.19e7
amos (absent MD neurons and olfactory sensilla) [DRSC03484] | calcium entry signal, replicate 1: 3.22e7; calcium entry signal, replicate 2: 4.34e7; resting calcium signal, replicate 1: 1.58e7; resting calcium signal, replicate 2: 1.69e7
Zip99C (Zinc/iron regulated transporter-related protein 99C) [DRSC16320] | calcium entry signal, replicate 1: 3.63e7; calcium entry signal, replicate 2: 4.31e7; resting calcium signal, replicate 1: 1.64e7; resting calcium signal, replicate 2: 2.08e7
mRpL23 (mitochondrial ribosomal protein L23) [DRSC08307] | calcium entry signal, replicate 1: 4.09e7; calcium entry signal, replicate 2: 4.18e7; resting calcium signal, replicate 1: 1.90e7; resting calcium signal, replicate 2: 1.78e7
CG6847 [DRSC19213] | calcium entry signal, replicate 1: 3.02e7; calcium entry signal, replicate 2: 4.18e7; resting calcium signal, replicate 1: 1.62e7; resting calcium signal, replicate 2: 1.83e7
CG6847 [DRSC20009] | calcium entry signal, replicate 1: 2.80e7; calcium entry signal, replicate 2: 3.46e7; resting calcium signal, replicate 1: 1.39e7; resting calcium signal, replicate 2: 1.49e7
Pez [DRSC03397] | calcium entry signal, replicate 1: 3.11e7; calcium entry signal, replicate 2: 3.89e7; resting calcium signal, replicate 1: 1.72e7; resting calcium signal, replicate 2: 1.81e7
Skp2 + CG14645 [DRSC12231] | calcium entry signal, replicate 1: 3.01e7; calcium entry signal, replicate 2: 5.11e7; resting calcium signal, replicate 1: 1.49e7; resting calcium signal, replicate 2: 2.39e7
CG30373 [DRSC05081] | calcium entry signal, replicate 1: 2.82e7; calcium entry signal, replicate 2: 5.44e7; resting calcium signal, replicate 1: 1.53e7; resting calcium signal, replicate 2: 2.29e7
CG2614 [DRSC02711] | calcium entry signal, replicate 1: 4.29e7; calcium entry signal, replicate 2: 1.79e7; resting calcium signal, replicate 1: 1.93e7; resting calcium signal, replicate 2: 1.02e7
CG43104 (retired record) [DRSC05624] | calcium entry signal, replicate 1: 2.63e7; calcium entry signal, replicate 2: 5.54e7; resting calcium signal, replicate 1: 1.28e7; resting calcium signal, replicate 2: 2.49e7
Tpl94D (Transition protein-like 94D) [DRSC13593] | calcium entry signal, replicate 1: 3.60e7; calcium entry signal, replicate 2: 3.22e7; resting calcium signal, replicate 1: 1.79e7; resting calcium signal, replicate 2: 1.64e7

Laid out differently: entries from further up
Target gene,DRSC id,"calcium entry signal, replicate 1","calcium entry signal, replicate 2","resting calcium signal, replicate 1","resting calcium signal, replicate 2"
Skp2 + CG14645,DRSC12231,3.01e7,5.11e7,1.49e7,2.39e7
CG30373,DRSC05081,2.82e7,5.44e7,1.53e7,2.29e7
